Reference: PubChem BioAssay AID686938 (Drosophila RNAi Screening Center, 2013)
Purpose: 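Fly genes required for calcium entry once internal stores are emptied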 (primary screen). Cell system: Drosophila S2R+ cells. Reagent: long dsRNA against Drosophila genes, about 0.25 µg dsRNA per well, roughly 10,000 cells. Timing: 5 days of knock-down before the calcium assay. Conditions: thapsigargin (SERCA pump blocker) to empty calcium stores; entry signal taken 4 min after adding it. Detection: 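Per-well fluo-4 fluorescence in two replicates, unnormalised, measured in resting cells and 4 min after store depletion by the SERCA blocker thapsigargin; ratio of the two present in few wells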. Scale: calcium entry signal: higher = stronger calcium signal after store depletion; resting calcium signal: higher = higher resting calcium signal. Active means: 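Hit if the duplicate-averaged plate z-score for entry over resting signal is under −3; wells with weak total dye signal (Fmax z < −2) or more than 5 off-targets removed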. Meaning of the calls: active = strongly reduced calcium entry; inactive = no strong reduction.
In all, the deposit lists about 23,000 reagents; this is an unselected part of those with a known target gene and a result. Over the whole deposit, 75 (0.33%) are marked active. 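Raw plate signals without normalisation; calls rest on plate z-scores that were not deposited; ratio present for only 364 wells.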 Names joined by + are all predicted targets of the reagent. No sequences are given here. Not stated in the record: the dose of the treatment.

no.	target gene	DRSC id	calcium entry signal, replicate 1 (fluorescence units)	calcium entry signal, replicate 2 (fluorescence units)	resting calcium signal, replicate 1 (fluorescence units)	resting calcium signal, replicate 2 (fluorescence units)	activity call
1	hts	DRSC05791	2.16e7	4.77e7	1.05e7	2.14e7	inactive
2	TwdlY	DRSC19153	3.72e7	2.12e7	1.92e7	1.05e7	inactive
3	5-HT1A	DRSC05030	4.33e7	3.76e7	1.90e7	1.80e7	inactive
4	ppk26	DRSC10991	3.08e7	6.65e7	1.39e7	2.49e7	inactive
5	skl	DRSC10050	2.99e7	5.86e7	1.66e7	2.19e7	inactive
6	CG11350	DRSC08181	2.17e7	1.84e7	1.28e7	1.01e7	inactive
7	CG14326	DRSC14805	3.46e7	5.38e7	1.82e7	5.31e7	inactive
8	inaF-B + inaF-D + inaF-C + 1 more	DRSC20342	3.80e7	3.79e7	1.79e7	1.82e7	inactive

4 entries from above, set out differently:
ppk26 [DRSC10991]: calcium entry signal, replicate 1 (fluorescence units) = 3.08e7; calcium entry signal, replicate 2 (fluorescence units) = 6.65e7; resting calcium signal, replicate 1 (fluorescence units) = 1.39e7; resting calcium signal, replicate 2 (fluorescence units) = 2.49e7; activity call = inactive
skl [DRSC10050]: calcium entry signal, replicate 1 (fluorescence units) = 2.99e7; calcium entry signal, replicate 2 (fluorescence units) = 5.86e7; resting calcium signal, replicate 1 (fluorescence units) = 1.66e7; resting calcium signal, replicate 2 (fluorescence units) = 2.19e7; activity call = inactive
CG11350 [DRSC08181]: calcium entry signal, replicate 1 (fluorescence units) = 2.17e7; calcium entry signal, replicate 2 (fluorescence units) = 1.84e7; resting calcium signal, replicate 1 (fluorescence units) = 1.28e7; resting calcium signal, replicate 2 (fluorescence units) = 1.01e7; activity call = inactive
CG14326 [DRSC14805]: calcium entry signal, replicate 1 (fluorescence units) = 3.46e7; calcium entry signal, replicate 2 (fluorescence units) = 5.38e7; resting calcium signal, replicate 1 (fluorescence units) = 1.82e7; resting calcium signal, replicate 2 (fluorescence units) = 5.31e7; activity call = inactive

Additional records:
no.	target gene	DRSC id	calcium entry signal, replicate 1 (fluorescence units)	calcium entry signal, replicate 2 (fluorescence units)	resting calcium signal, replicate 1 (fluorescence units)	resting calcium signal, replicate 2 (fluorescence units)	activity call
9	NimB5	DRSC01885	4.93e7	3.30e7	2.17e7	1.58e7	inactive
10	CG42650	DRSC12462	3.49e7	3.83e7	1.76e7	1.91e7	inactive
11	fl(2)d	DRSC07620	3.18e7	4.75e7	1.73e7	2.07e7	inactive
12	CG2070	DRSC06814	3.41e7	3.97e7	1.74e7	1.72e7	inactive
13	CG1545	DRSC21532	4.23e7	3.85e7	2.47e7	2.04e7	inactive
14	U3-55K	DRSC05982	2.61e7	2.71e7	1.54e7	1.57e7	inactive
15	FASN2	DRSC00167	4.13e7	4.40e7	1.99e7	1.92e7	inactive
16	FASN2	DRSC00610	4.45e7		2.56e7		inactive
17	PPO2	DRSC07102	5.59e7	3.71e7	2.44e7	1.80e7	inactive
18	GstD10	DRSC15346	3.15e7	2.93e7	1.64e7	1.62e7	inactive
19	CG15019	DRSC08473	2.00e7	2.84e7	1.00e7	1.31e7	inactive
20	atilla	DRSC02971	3.22e7	2.29e7	1.51e7	1.12e7	inactive
21	CG14915	DRSC02399	3.80e7	5.86e7	1.99e7	2.45e7	inactive
22	Ror	DRSC03414	3.13e7	3.30e7	1.45e7	1.55e7	inactive
23	olf413	DRSC11543	2.99e7	2.88e7	1.32e7	1.27e7	inactive
24	olf413	DRSC11679	3.13e7	3.98e7	1.64e7	2.02e7	inactive
25	olf413	DRSC11721	2.68e7	4.19e7	1.48e7	1.94e7	inactive
26	olf413	DRSC11833	2.65e7	2.57e7	1.43e7	1.34e7	inactive
